Measured values as given in patent US10781325B2, “Curable composition, curable ink, accommodating container, image forming device, image forming method, cured matter, and acrylamide compound” (Ricoh Company, Ltd., priority 2016, dated 2020).

Experiment: Evaluation on odor of curable compound
Parameters: key: A: no odor or not uncomfortable if any; B: uncomfortable with peculiar odor; C: Very uncomfortable with peculiar odor
Conditions: about 100 mg in closed 50 mL glass bin, about 30 minutes at room temperature

| Compound | Odor (no odor) |
| --- | --- |
| C=CC(=O)N(C)C(C)C(=O)OC (stereo not drawn) [Example 13a] | A |
| C=CC(=O)N(C)CC(=O)OCCCC [Example 6a] | A |
| C=CC(=O)N(C)CCOC(C)=O [Example 1a] | A |
| C=CC(=O)N(CC(=O)OC)C(C)C [Example 9a] | A |
| C=CC(=O)N(CCCCCC)CC(=O)OC [Example 11a] | A |
| C=CC(=O)N(CC(=O)OC(C)C)C(C)C [Example 10a] | A |
| C=CC(=O)N(C)C(C)C(=O)OCC (stereo not drawn) [Example 14a] | A |
| C=CC(=O)N(C)C(C)C(=O)OC(C)C (stereo not drawn) [Example 15a] | A |
| C=CC(=O)N(C)CC(=O)OC(C)C [Example 7a] | A |
| C=CC(=O)N(C)CCOC(=O)C(C)C [Example 2a] | A |
| C=CC(=O)N(CCOC(C)=O)C(C)(C)C [Example 3a] | A |
| C=CC(=O)N(CC)CC [Comparative Example 1a, N,N-diethylacrylamide, reference compound] | C |
| C=CC(=O)N(CC(=O)OCC)CC(=O)OCC [Comparative Example 3a, reference compound] | A |
| C=CC(=O)N(CCC)CC(=O)OCC [Example 8a] | A |
| C=CC(=O)N(C)CCOC [Comparative Example 2a, reference compound] | A |
| C=CC(=O)N(CCCCCC)CC(=O)OCCCC [Example 12a] | A |
| C=CC(=O)N(C)CC(=O)OC [Example 4a] | A |
| C=CC(=O)N(C)CC(=O)OCC [Example 5a] | A |
